From PubChem BioAssay AID248 (DTP/NCI, 2004) come the findings set out here.

The list shows only some results of the screen, not a fair sample: it is rich in T/C values a quarter to a half above the control, in often repeated tests (any T/C) and in doses without a T/C. Other doses and runs of a compound stand elsewhere. T/C: endpoint of the treated group in % of that of the vehicle group. Some doses have a count of surviving animals in place of a T/C: the source holds a T/C of zero for them, seemingly a mark for toxic or unscored doses. Some survivor counts are full or nearly so, which does not show that the dose was tolerated: survival well below the control is almost never listed, so the zero probably covers shortened survival too. Survivors were counted at the toxicity check, usually on the fifth day, unless a day is given; later deaths do not show. Schedules are NCI's codes, read here as Q, the interval in days (D) or hours (H), X, the number of doses. Some entries were tested several times; the values are given in rising order. Some schedule codes hold Z or #, which are not explained here. Some molecules as drawn cover several salts, stereoisomers or complexes of the source; a dose is that of the sample tested. Counts like (3×) count equal records among those shown. For survival time, the PubChem record calls one and a half times the control and up active, and a quarter to a half above the control has no call in these data; cut-offs in other NCI protocols can differ.

For this assay, the system named is L1210 leukemia ip in BDF1 mice, survival T/C. The assay is described as follows: NCI In Vivo Anticancer Drug Screen. Data for tumor model L1210 Leukemia (intraperitoneal) in B6D2F1 (BDF1) mice. The conditions noted are these: T/C endpoint: mean survival time, higher T/C = longer survival.
The mark [1] stands for this setting: dose: 400.0 mg/kg/injection, schedule: Q04DX003 (ip), vehicle: Klucel (hydroxypropylcellulose) (HPC).
The mark [2] stands for this setting: dose: 200.0 mg/kg/injection, schedule: Q04DX003 (ip), vehicle: saline.
Where [3] appears, read: dose: 400.0 mg/kg/injection, schedule: Q04DX003 (ip), vehicle: saline.
Setting [4] is: dose: 400.0 mg/kg/injection, schedule: Q04DX003 (ip), vehicle: saline with Tween-80.
Setting [5] is: dose: 400.0 mg/kg/injection, schedule: Q01DX001 (ip), vehicle: saline.
The mark [6] stands for this setting: dose: 200.0 mg/kg/injection, schedule: Q01DX009 (ip), vehicle: Klucel (hydroxypropylcellulose) (HPC).

For the compound `CC(=O)Nc1nnc(Sc2n[nH]c(=O)[nH]c2=O)s1`, the survivor count is 1 of 6 (dose: 20.0 mg/kg/injection, schedule: Q01DX001 (ip), vehicle: saline); 3 of 6 (dose: 40.0 mg/kg/injection, schedule: Q01DX001 (ip), vehicle: saline); 1 of 6 (dose: 75.0 mg/kg/injection, schedule: Q01DX001 (ip), vehicle: saline); 0 of 6 (dose: 150.0 mg/kg/injection, schedule: Q01DX001 (ip), vehicle: saline); 0 of 6 (dose: 300.0 mg/kg/injection, schedule: Q01DX001 (ip), vehicle: saline).

Take `OCC(O)C1CCCCN1` (stereo unspecified): the survivor count (dose: 400.0 mg/kg/injection, schedule: Q01DX009 (ip), vehicle: saline) is on record as 2 of 6.

For the compound `CC(N)c1ccc(OCCOc2ccc(C(C)(C)CC(C)(C)C)cc2)cc1` (stereo unspecified), the survivor count under setting [1] is 1 of 6.

For the compound `Nc1ccc(Cc2ccncc2)cc1`, the survivor count (dose: 25.0 mg/kg/injection, schedule: Q04DX002 (ip), vehicle: carboxymethylcellulose (CMC)) is 3 of 3; the survivor count (dose: 100.0 mg/kg/injection, schedule: Q04DX003 (ip), vehicle: carboxymethylcellulose (CMC)) is 3 of 6; the survivor count (dose: 200.0 mg/kg/injection, schedule: Q04DX002 (ip), vehicle: carboxymethylcellulose (CMC)) is listed as 1 of 6; the survivor count (dose: 400.0 mg/kg/injection, schedule: Q04DX002 (ip), vehicle: carboxymethylcellulose (CMC)) was 1 of 3 and 5 of 6. Further, under “dose: 100.0 mg/kg/injection, schedule: Q04DX002 (ip), vehicle: carboxymethylcellulose (CMC)”, the T/C is given as 93, 97, 98, 105 % of control.

With `CCCCCCCCCCCCCCCC(=O)N(CCCN)CCCCCCCCCN(CCCN)C(=O)CCCCCCCCCCCCCCC`, the survivor count is, setting by setting: (dose: 100.0 mg/kg/injection, schedule: Q01DX009 (ip), vehicle: saline) 3 of 6; under setting [2], 1 of 6; under setting [3], 1 of 6.

With `COc1ccc(C(=O)c2no[n+]([O-])c2C(=O)c2ccc(OC)cc2)cc1`, the survivor count under setting [4] is 6 of 6.

Turning to `Nc1c2ccccc2cc2cccc[n+]12`, the survivor count is, setting by setting: (dose: 37.5 mg/kg/injection, schedule: Q01DX001 (ip), vehicle: other) 0 of 6 and 1 of 6; (dose: 75.0 mg/kg/injection, schedule: Q01DX001 (ip), vehicle: other) 0 of 6 (2×); (dose: 150.0 mg/kg/injection, schedule: Q01DX001 (ip), vehicle: other) 0 of 6 and 1 of 6; (dose: 300.0 mg/kg/injection, schedule: Q01DX001 (ip), vehicle: other) 0 of 6 and 1 of 6.

Turning to `O=C(O)C1C(C(=O)O)C23CC2(C(=O)O)C2(C(=O)O)CCC3=C3CCCC312` (stereo unspecified), the survivor count is 3 of 6 (dose: 25.0 mg/kg/injection, schedule: Q01DX009 (ip), vehicle: saline); 1 of 6 (dose: 50.0 mg/kg/injection, schedule: Q01DX001 (ip), vehicle: saline); 1 of 6 (dose: 100.0 mg/kg/injection, schedule: Q01DX001 (ip), vehicle: saline); 0 of 6 (dose: 200.0 mg/kg/injection, schedule: Q01DX001 (ip), vehicle: saline); 0 of 6 under setting [5].

On to `COS(=O)(=O)CCC[n+]1ccccc1`, for which the survivor count under setting [5] is reported as 0 of 4.

With `CN(C)C(=O)c1cc(NC(=O)Nc2cccc(C3=NCCN3)c2)cc(NC(=O)Nc2cccc(C3=NCCN3)c2)c1`, the survivor count runs as follows: (dose: 15.0 mg/kg/injection, schedule: Q01DX Z (ip), vehicle: saline) 0 of 6; (dose: 30.0 mg/kg/injection, schedule: Q01DX Z (ip), vehicle: saline) 0 of 6; (dose: 60.0 mg/kg/injection, schedule: Q01DX Z (ip), vehicle: saline) 0 of 6; (dose: 120.0 mg/kg/injection, schedule: Q01DX Z (ip), vehicle: saline) 0 of 6.

Take `CN=C1CN(O)C(c2ccccc2)=c2cc(Cl)ccc2=N1`: the survivor count runs as follows: under setting [5], 0 of 6; (dose: 400.0 mg/kg/injection, schedule: Q01DX009 (ip), vehicle: acetone) 0 of 6; under setting [3], 0 of 4.

For the compound `COC1=C(N=[N+]=[N-])C(=O)C(OC)=C(N=[N+]=[N-])C1=O`, the survivor count reads like this: (dose: 16.0 mg/kg/injection, schedule: Q01DX009 (ip), vehicle: carboxymethylcellulose (CMC)) 6 of 6; (dose: 20.0 mg/kg/injection, schedule: Q01DX001 (ip), vehicle: carboxymethylcellulose (CMC)) 2 of 4; (dose: 32.0 mg/kg/injection, schedule: Q01DX009 (ip), vehicle: carboxymethylcellulose (CMC)) 0 of 6; (dose: 40.0 mg/kg/injection, schedule: Q01DX001 (ip), vehicle: carboxymethylcellulose (CMC)) 1 of 4 and 3 of 6; (dose: 64.0 mg/kg/injection, schedule: Q01DX009 (ip), vehicle: carboxymethylcellulose (CMC)) 0 of 6; (dose: 80.0 mg/kg/injection, schedule: Q01DX001 (ip), vehicle: carboxymethylcellulose (CMC)) 0 of 6. For the same compound, the survivor count (dose: 100.0 mg/kg/injection, schedule: Q01DX001 (ip), vehicle: other) was 1 of 6; the survivor count (dose: 200.0 mg/kg/injection, schedule: Q01DX001 (ip), vehicle: other) is listed as 0 of 6; the survivor count (dose: 215.0 mg/kg/injection, schedule: Q01DX009 (ip), vehicle: saline) is recorded as 5 of 6; the survivor count (dose: 215.0 mg/kg/injection, schedule: Q04DX003 (ip), vehicle: saline) is 5 of 6; the survivor count (dose: 330.0 mg/kg/injection, schedule: Q01DX009 (ip), vehicle: saline) was 0 of 6; the survivor count (dose: 400.0 mg/kg/injection, schedule: Q01DX001 (ip), vehicle: other) is 0 of 6.

As for `NCCCOC12CC3CC(CC(C3)C1)C2`, the survivor count is 0 of 3 (dose: 100.0 mg/kg/injection, schedule: Q04DX002 (ip), vehicle: saline); 0 of 3 (dose: 200.0 mg/kg/injection, schedule: Q04DX002 (ip), vehicle: saline); 0 of 3 (dose: 400.0 mg/kg/injection, schedule: Q04DX002 (ip), vehicle: saline).

As for `C/C(=C\c1ccccc1)[N+](=O)[O-]`, the survivor count (dose: 100.0 mg/kg/injection, schedule: Q01DX009 (ip), vehicle: Klucel (hydroxypropylcellulose) (HPC)) is 3 of 6; the survivor count (dose: 100.0 mg/kg/injection, schedule: Q04DX003 (ip), vehicle: Klucel (hydroxypropylcellulose) (HPC)) was 6 of 6; the survivor count (dose: 160.0 mg/kg/injection, schedule: Q04DX003 (ip), vehicle: Klucel (hydroxypropylcellulose) (HPC)) is on record as 5 of 6; the survivor count under setting [6] is reported as 0 of 6; the survivor count (dose: 200.0 mg/kg/injection, schedule: Q04DX003 (ip), vehicle: Klucel (hydroxypropylcellulose) (HPC)) is recorded as 0 of 6; the survivor count under setting [1] is on record as 0 of 6.

As for `Cc1c2ccccc2c(C)c2c1cc(O)c1ccccc12`, under setting [6], the survivor count is 0 of 3.

Take `Clc1ccc(C(c2ccc(Cl)cc2)N2CCNCC2)cc1`: the survivor count is, setting by setting: (dose: 50.0 mg/kg/injection, schedule: Q01DX009 (ip), vehicle: saline with Tween-80) 2 of 6; (dose: 100.0 mg/kg/injection, schedule: Q01DX009 (ip), vehicle: saline with Tween-80) 0 of 6; (dose: 100.0 mg/kg/injection, schedule: Q04DX003 (ip), vehicle: saline with Tween-80) 4 of 6; (dose: 200.0 mg/kg/injection, schedule: Q04DX003 (ip), vehicle: saline with Tween-80) 0 of 6; under setting [4], 1 of 6.

`CN(C)CCN1c2ccccc2Sc2ccccc21`: the survivor count under setting [2] is recorded as 4 of 4.
